# Results from patent publication US12600715B2, “Soluble guanylate cyclate activators for treating systemic sclerosis” (Boehringer Ingelheim International GmbH, priority 2022, dated 2026).
# “Also recorded” adds a separate entry of the source. At least one structure is not confirmed: it was looked up by name or label, or the drawing left a doubt.
# Tested on: platelet-rich plasma (PRP) from healthy donor volunteers
# Assay: Activation of PRP by ADP and CXCL4 detection by ELISA
# Format: cell-based, human
# Conditions: standards of care, 10 μM ADP
# Description: • Compound 114 (sample ID: 30295026, batch: 5) • EX0076637 (sample ID: 17810950, batch: 5) • Nintedanib esilate (Boehringer Ingelheim, Manufacture #67653, lot #1078235) • EX0000076 (sample ID: 15614118, batch: 1) • Blood from healthy donor volunteers • Plastic blood collection tubes with sodium citrate (BD biosciences, 363083) • 50 ml conical tube (Corning, 430828) • BSA solution, 30% in saline, fatty acid free, aseptically filled (Sigma, A9205) • ADP (Sigma, 01905-250MG-F) • Tyrode's buffer (Sigma, T2397) • HEPES (Gibco, 15630-080) • DMSO (Sigma, D2650) • 1 ml deep well plate (Thermo Scientific, 260251) • Sterile 0.22 um PVDF filter plate (Millipore, MAGVS2210) • 96 well microplate (Thermo Scientific, 249946) • CXCL4 ELISA kit (Abcam, ab189573 and R&D systems, DPF40)
# Buffer preparation: HEPES-Tyrode BSA buffer: Tyrode's buffer supplemented with 0.35% BSA and 5 mM HEPES.
# Generating platelet-rich plasma (PRP): Blood is collected from healthy donor volunteers, into plastic sodium citrate tubes. The first two collected tubes are discarded. The remaining blood is processed within 30 mins of blood drawing. The blood is poured into 50 ml conical tubes without exceeding 35 ml per tube and centrifuged at 200×g for 16 minutes at room temperature with acceleration set at half of maximum speed and deceleration off. […] The PRP is then ready to use for experiment as described in protocol below. […]
smiles,measurement,value
"COc1c(C)c2c(c(O)c1C/C=C(\C)CCC(=O)O)C(=O)OC2 [MMF, mycophenolate]",effect on ADP-induced CXCL4 production,ineffective; also recorded: Minimal to no effect
